According to PubChem BioAssay AID493014 (National Center for Advancing Translational Sciences (NCATS), 2011):
The whole screen tested about 340,000 compounds, of which about 170 (0.05%) were called active. The inconclusive results got no clear call from the source; some entries with a clear call stand among them for comparison. Calls come from the whole dose curve; as a rule, active = well fitted inhibition curve with a large enough effect in the signal ratio, with a control signal flat (not every such curve was filed as active); inconclusive = small, poorly fitted or top-dose-only effect, or effect the other way, or a change in a side signal; inactive = flat fitted curve, though single readings scatter; the % refers to the signal ratio. Where the call is inconclusive, the potency comes from a doubtful curve fit.

Assay: qHTS Assay to Find Inhibitors of Chronic Active B-Cell Receptor Signaling;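 for activity change, negative = inhibition: plate controls were basal doxycycline-induced cells for no effect and cells given 10 µM MG132 for full effect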
Details: ABC-DLBCL IkBa-CBG/CBR reporter, luminescence ratio (green luciferase fused to IkBa over red control in TMD8 lymphoma cells), 4 h; activity change, negative = inhibition: at 46.1 µM (top of the series)
In short: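 Doxycycline induced both beetle luciferases in TMD8 lymphoma cells; IKK-driven degradation limits the IkappaBalpha-fused green signal, while red luminescence normalises for cell number and nonspecific effects. Compounds tested up to 46 uM, 4 hrs.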
Potency is the fitted concentration of half-maximal effect.

Compound | Potency | activity change, negative = inhibition
COP(=O)(CC(=O)O)c1ccccc1 (stereo not given) | inconclusive: 0.103 µM [falling, full curve, poor fit] | 
Cc1nnc2ccc(N3CCN(C)CC3)nn12 |  | inconclusive: 1.59%
Nc1c(C(=O)NCCCc2ccccc2)c2nc3ccccc3nc2n1Cc1cccs1 |  | inactive: -3.83%
CCn1c(O)c(N=Nc2ccc(S(=O)(=O)N3CCOCC3)cc2)c(=O)n(CC)c1=S | inconclusive: 6.31 µM [falling, partial curve, poor fit] | 
CCCCOC(=O)c1ccccc1C(=O)OCc1ccccc1 |  | inconclusive: 1.95%
COc1ccc(Cn2c(N)c(C(=O)NCc3ccco3)c3nc4ccccc4nc32)cc1 |  | inconclusive: 13.7%
Cc1ccccc1N |  | inactive: -1.81%
O=[N+]([O-])c1ccc(N2CCNCC2)cc1NCc1ccco1 |  | inconclusive: -0.908%
C=CCn1c(O)c(C(C)=NCc2ccc3c(c2)OCO3)c(=O)[nH]c1=O |  | inconclusive: -24%
CC(C)(O)C(=O)Nc1ccc([N+](=O)[O-])c(C(F)(F)F)c1 |  | inactive: 0.392%
FC(F)(F)/C(=N\P(=S)(N1CCOCC1)N1CCOCC1)N1CCOCC1 |  | inconclusive: 0.656%
O=c1[nH]c(=O)n(Cc2ccco2)c(O)c1C=NCCCn1ccnc1 |  | inconclusive: 15.7%
CC1CCCN(c2nc(N(C)c3ccccc3)nc(N)c2[N+](=O)[O-])C1 (stereo not given) |  | inconclusive: 10.8%
Cc1cc(OC(C)C(=O)NCC(O)c2ccccc2)c2c3c(c(=O)oc2c1)CCCC3 (stereo not given) |  | inactive: -0.266%
CCc1c(C)nc(N)nc1N1N=C1SC(C(C)=O)C(C)=O |  | inconclusive: 6.14%
O=[N+]([O-])c1ccc(CNCCc2ccccc2)cc1 |  | inactive: 11%
ClC1=C(Cl)C2(Cl)C3C(Cl)C=CC3C1(Cl)C2(Cl)Cl (stereo not given) |  | inactive: 0.902%
Oc1ccc(/C=N/NP(=S)(c2ccccc2)c2ccccc2)c(O)c1O |  | inactive: 20.3%
COc1ccc(C2/C=C\CN(C(=O)C3CC3)[C@H](Cc3ccccc3)C(=O)N2Cc2ccc(F)cc2)cc1 (stereo not given in full) |  | inconclusive: -1.68%
CCOc1ccc(-n2c(O)c(C=NCCCn3ccnc3)c(=O)[nH]c2=O)cc1 |  | inconclusive: 14%

Compound | Potency | activity change, negative = inhibition
CCc1ccc(N2C(=O)NC(=O)/C(=C/c3ccsc3)C2=O)cc1 |  | inconclusive: 3.47%
NC1C2CN3CCN(C2)CC1(c1ccccc1)C3 (stereo not given) | inconclusive: 0.562 µM [falling, full curve, poor fit] | 
FC(F)(F)c1ccccc1CN1CCN(Cc2ccccc2)CC1 |  | inactive: 18.1%
CC1CCC(N2CCN(C(=O)COc3ccccc3)CC2)CC1 (stereo not given) |  | inconclusive: 10.3%
COc1ccc(N2CC(C(=O)Nc3nc4ccc(OC)cc4s3)CC2=O)cc1 (stereo not given) |  | inconclusive: -7.73%
CCOC(=O)N1C(=O)[C@@](c2ccc(Cl)cc2)(C(C)C)N1C(=O)OCC | inconclusive: 8.91 µM [falling, partial curve, poor fit] | 
COc1ccc(OC)c(C(c2c(O)c3ccccc3oc2=O)c2c(C)n(C)n(-c3ccccc3)c2=O)c1 (stereo not given) | inconclusive: 1.12 µM [falling, full curve, poor fit] | 
CCCCNC(=O)c1c(N)n(CCCOC)c2nc3ccccc3nc12 |  | inconclusive: 11.7%
Cc1cnc(-n2c(=S)[nH]c3ccccc3c2=O)s1 |  | inconclusive: -1.09%
COC(=O)C1=C(c2ccc(F)cc2OCc2ccccc2)C[C@@H]2CC[C@H]1N2C(=O)NCc1cccc(OC)c1 |  | inactive: -8.48%
COc1ccc(OC)c(-n2c(O)c(C=Nc3c(C)n(C)n(-c4ccccc4)c3=O)c(=O)[nH]c2=S)c1 |  | inactive: 5.39%
CCc1cccc(NC(=O)CN2C(=O)CN=C(c3ccccc3F)c3cc(Cl)ccc32)c1 | inconclusive: 35.5 µM [falling, partial curve, poor fit] | 
O=c1c2ccccc2nc(-c2ccc([N+](=O)[O-])cc2)n1-c1ccccc1 |  | inactive: 6.7%
Cc1ccc(-n2c(O)c(/C=C3/C(c4ccccc4)=Nc4ccccc43)c(=O)[nH]c2=O)cc1 | inconclusive: 18.4 µM [falling, single point] | 
CC(C)[C@@]1(NC(=O)[C@@H]2C[C@@H]3c4cccc5[nH]cc(c45)C[C@H]3N(C)C2)O[C@@]2(O)[C@@H]3CCCN3C(=O)[C@H](Cc3ccccc3)N2C1=O |  | inconclusive: 16.9%
NC1=Nc2cccc3cccc1c23 | inconclusive: 22.4 µM [falling, single point] | 
Cc1ccc(NC(=O)Cn2c(=O)oc3ccccc32)cc1Cl | inconclusive: 11.2 µM [falling, partial curve] | 
O=C1CN=C(c2cccc(Br)c2)c2cc(Br)ccc2N1 |  | inconclusive: -14.8%
O=c1[nH]c(=S)[nH]c(O)c1N=Nc1ccc2c(c1)OCCO2 | inconclusive: 11.2 µM [falling, partial curve] | 
O=c1[nH]c(=S)[nH]c(O)c1CN1CCCCC1 |  | inactive: 1.99%

Three records picked at random from those above:
Compound | Potency | activity change, negative = inhibition
Cc1ccc(-n2c(O)c(/C=C3/C(c4ccccc4)=Nc4ccccc43)c(=O)[nH]c2=O)cc1 | inconclusive: 18.4 µM [falling, single point] | 
CCc1ccc(N2C(=O)NC(=O)/C(=C/c3ccsc3)C2=O)cc1 |  | inconclusive: 3.47%
O=c1c2ccccc2nc(-c2ccc([N+](=O)[O-])cc2)n1-c1ccccc1 |  | inactive: 6.7%
